US20170121383A1

Target: T1, mature bone morphogenetic protein 10 (BMP10), human (human) (UniProt O95393)
T1 sequence: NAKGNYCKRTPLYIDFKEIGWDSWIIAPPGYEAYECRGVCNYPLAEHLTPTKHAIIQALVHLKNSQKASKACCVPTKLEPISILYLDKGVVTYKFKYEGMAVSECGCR
Assay: co-purification of the prodomain with mature BMP10 from HEK-EBNA conditioned medium (Q-Sepharose, then S200 gel filtration; non-reducing SDS-PAGE, western blot, mass spectrometry)

B1: BMP10 prodomain (propeptide of human bone morphogenetic protein 10) (protein)
chain: SPIMNLEQSPLEEDMSLFGDVFSEQDGVDFNTLLQSMKDEFLKTLNLSDIPTQDSAKVDPPEYMLELYNKFATDRTSMPSANIIRSFKNEDLFSQPVSFNGLRKYPLLFNVSIPHHEEVIMAELRLYTLVQRDRMIYDGVDRKITIFEVLESKGDNEGERNMLVLVSGEIYGTNSEWETFDVTDAIRRWQKSGSSTHQLEVHIESKHDEAEDASSGRLEIDTSAQNKHNPLLIVFSDDQSSDKERKEELNEMISHEQLPELDNLGLDSFSSGPGEEALLQMRSNIIYDSTARIRR
In the case of B1, the binding is reported as “binds”.

Results are given in words; binding and its absence hold for the method and conditions named. Binding seen in cells or lysates may run through a third protein. These calls come from enrichment with a bait or labelling near it, and not all partners need be listed.
